# Reference: PubChem BioAssay AID504467 (National Center for Advancing Translational Sciences (NCATS), 2011)
# In all, about 330,000 compounds went through this assay and about 7,700 (2.3%) were called active. The shares of active, inactive and inconclusive entries below differ from those in the screen. Calls follow the shape of the dose curve; as a rule, active = well fitted inhibition curve with a large enough effect; inconclusive = small, poorly fitted or top-dose-only effect, or effect the other way; inactive = flat fitted curve, though single readings scatter. A potency beside an inconclusive call is a rough fit, not a confirmed value.
# Experiment: qHTS screen for small molecules that inhibit ELG1-dependent DNA repair in human embryonic kidney (HEK293T) cells expressing luciferase-tagged ELG1; also: nearly all actives have a fitted effect of over 55% in size
# Conditions: HEK293T ELG1-luciferase reporter, luminescence, 16 h, DNA damage induced by 5-fluorouridine; activity change, negative = inhibition: at 46.1 µM (top of the series)
# Method in brief: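 Step one: seed 2,000 cells per well. Step two: pin-transfer compound or DMSO alongside 5-fluorouridine. Step three: incubate 16 hr, 37 °C, 5% CO2. Step four: add ONE-Glo, wait 30 min, read luminescence.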
# % is scaled to controls: 0 for no effect and ±100 for the full control effect; potency is read from the fitted curve at half-maximal effect.
Compound,Potency,"activity change, negative = inhibition"
COc1ccc(N2CCN(C(=O)c3cccc(S(=O)(=O)N4CCc5ccccc54)c3)CC2)cc1,"inconclusive: 1.03 µM [inhibitor, single point]",–
N/C(=N\OC(=O)CCC1CCCCC1)c1ccc([N+](=O)[O-])cc1,"inconclusive: 29.1 µM [activator, partial curve, poor fit]",–
COc1ccc(CNS(=O)(=O)c2ccc(-c3ccc(=O)[nH]n3)o2)cc1,"inconclusive: 29.1 µM [activator, partial curve, poor fit]",–
Fc1ccc(CNC(=S)Nc2cccc(C(F)(F)F)c2)cc1,"inconclusive: 29.1 µM [inhibitor, single point]",–
O=C(COc1ccccc1Cl)Nc1ccc2c(c1)OCO2,"inconclusive: 16.4 µM [activator, partial curve]",–
O=C(Oc1ccc2ccccc2c1Br)N1CCCCCC1,"inconclusive: 3.26 µM [activator, full curve]",–
CCCCC(=O)Nc1ccc2oc(-c3cccnc3)nc2c1,"inconclusive: 0.651 µM [activator, single point]",–
Cc1ccc(NC(=O)c2c(Cl)nc3ccccn23)cc1,"inconclusive: 9.2 µM [activator, partial curve]",–
Cc1nc2ccc(N)cc2c(=O)n1Cc1ccc(Cl)cc1,–,inactive: 24.4%
Cc1nc(N2CCCC2)c2ccsc2n1,"inconclusive: 20.6 µM [inhibitor, single point]",–
CC(C)N(Cc1ccccc1)C(=O)COC(=O)c1c(F)cccc1F,–,inactive: 2.29%
CCN(c1ccc(NC(=O)COC(=O)c2ccc([N+](=O)[O-])o2)cc1)C(C)C,"inconclusive: 29.1 µM [activator, partial curve, poor fit]",–
CCOc1ccccc1NC(=O)CSC1=C(C#N)C(c2ccco2)C(C(=O)Nc2nc3ccccc3s2)=C(C)N1 (centres undefined),–,inactive: 1.61%
COc1ccc(CN2CCN(c3ncnc4scc(-c5ccc(F)cc5)c34)CC2)cc1,"inconclusive: 25.9 µM [inhibitor, single point]",–
Cc1nc2nc(SCC(=O)NCCCN3CCCC(C)C3)nn2c(C)c1Cc1ccccc1Cl (centres undefined),–,inactive: 24%
N#Cc1cccnc1N1CCN(C(=O)c2cccc3c2C(=O)c2ccc(-c4ccc(Cl)c(C(F)(F)F)c4)cc2S3(=O)=O)CC1,"inconclusive: 2.06 µM [inhibitor, partial curve, poor fit]",–
Cc1ccc(-n2nnc3ccccc3c2=O)cc1C,"inconclusive: 10.3 µM [activator, partial curve]",–
COc1ccc(C)cc1S(=O)(=O)Nc1cc2c3c(c1)CCC(=O)N3CCC2,"inconclusive: 23.1 µM [activator, single point]",–
CCSc1ncnc2c1oc1ccccc12,"inconclusive: 29.1 µM [activator, single point]",–
CSCC[C@H](NC(=O)OC(C)(C)C)C(=O)N1CCC(C(=O)N[C@@H](C)C(=O)NC(C)c2ccccc2)CC1 (some centres undefined),"inconclusive: 1.46 µM [activator, full curve, poor fit]",–
COc1ccccc1NC(=O)c1cc2ccccc2o1,"inconclusive: 14.6 µM [activator, partial curve]",–
COc1cccc(Nc2c3c(nc4c(-c5ccccc5)c(C)nn24)CCC3)c1,"inconclusive: 20.6 µM [inhibitor, single point]",–
CCC1CCCCN1C(=O)c1cc(-c2ccc(Cl)c(Cl)c2)on1 (centres undefined),"inconclusive: 14.6 µM [activator, partial curve]",–

Compound,Potency,"activity change, negative = inhibition"
COc1cccc(C2C3=C(N=c4s/c(=C\c5cccc(O)c5)c(=O)n42)c2ccccc2CC3)c1OC (centres undefined),"inconclusive: 9.2 µM [inhibitor, partial curve]",–
Nc1ccc(NC(=O)c2cccs2)c(Cl)c1,"inconclusive: 11.2 µM [activator, partial curve, poor fit]",–
COc1cccc(NC(=O)Cn2c(=O)n(CCC(=O)NC3CCN(Cc4ccccc4)CC3)c(=O)c3ccccc32)c1,–,inactive: -25.8%
O=C(c1ccc(S(=O)(=O)Nc2ccccc2F)cc1)N1CCCC1,–,inactive: 22.9%
Cc1nnc(Sc2nc3ccccc3o2)c2ccccc12,"inconclusive: 25.9 µM [activator, single point]",–
CC(C)(C)n1nc2c(c1NC(=O)COc1ccc(F)cc1)CS(=O)(=O)C2,–,inactive: 15.8%
CCCCc1ccc(NC(=S)NCCc2ccc(S(N)(=O)=O)cc2)cc1,"inconclusive: 29.1 µM [inhibitor, single point]",–
COc1ccc(C(=O)Nc2cc(OC)nc(OC)n2)cc1,"inconclusive: 2.06 µM [activator, full curve]",–
CCOC(=O)C1CCCN(C2=NC(=O)/C(=C/c3ccc(OC)c(OC)c3)S2)C1 (centres undefined),–,inactive: -8.18%
Cc1ccc(-c2cc(C(F)F)nc(N3CCOCC3)n2)cc1,–,inactive: -20.9%
O=C(N/N=C/c1cn(-c2ccccc2)nc1-c1cc2ccccc2o1)c1c[nH]c2ccccc12,"inconclusive: 0.82 µM [activator, full curve, poor fit]",–
CCOC(=O)NC(=O)/C(C#N)=N\Nc1cccc(Cl)c1,"inconclusive: 14.6 µM [inhibitor, partial curve]",–
COC(=O)c1sc(NC(=S)NC(=O)c2ccc(C)cc2)nc1C,"inconclusive: 10.3 µM [activator, partial curve]",–
COc1ccc(CCN(/C=C2\Sc3ccccc3C2=O)C(C)=O)cc1OC,"inconclusive: 29.1 µM [activator, partial curve, poor fit]",–
O=C(COc1ccc(S(=O)(=O)N2CCCC2)cc1)NCc1ccccn1,–,inactive: 2.18%
Cc1ccc(C(=O)N2CCN(c3ccccc3)CC2)cc1S(=O)(=O)N1CCCC1,active: 16.4 µM,–
COc1ccc(S(=O)(=O)NNC(=O)C(=O)NNc2ccccn2)cc1,"inconclusive: 16.4 µM [inhibitor, partial curve, poor fit]",–
Cc1ccc(C(=O)Nc2ccc(C(=O)N3CCCCC3)cc2)o1,"inconclusive: 20.6 µM [activator, partial curve]",–
Nc1cc(Cl)ccc1C(=O)OCC(=O)N1CCCC1,"inconclusive: 14.6 µM [activator, partial curve]",–
CCCN(CC(=O)Nc1cccc(S(N)(=O)=O)c1)CC(=O)Nc1ccc(F)c(F)c1F,–,inactive: -9%
COC(=O)c1c(-c2ccccc2OC)sc2ccccc12,–,inactive: -17.7%
Cc1ccc(NC(=O)c2ccc(C(=O)c3ccccc3)cc2)nc1,"inconclusive: 23.1 µM [inhibitor, single point]",–
NC(=O)c1ccc(Nc2ccc3c(c2)CCC3)c([N+](=O)[O-])c1,active: 11.6 µM,–

Compound,Potency,"activity change, negative = inhibition"
Cc1sc2nc(SCC(=O)NCc3ccco3)n(C)c(=O)c2c1C,"inconclusive: 16.4 µM [inhibitor, single point]",–
Cc1ccc(Nc2nc(N)nc(CSc3nccn3C)n2)cc1,"inconclusive: 8.2 µM [activator, partial curve]",–
COc1ccc(C(CNC(=O)Cn2[nH]c(=O)c3ccccc3c2=O)N2CCCC2)cc1 (centres undefined),–,inactive: -0.587%
COc1ccc(CC(=O)N/N=C/c2c(C)n(C)c3ccccc23)cc1OC,"inconclusive: 1.83 µM [inhibitor, partial curve, poor fit]",–
Cc1cccc(NC(=O)CCNC(=O)c2ccc(Br)cc2)c1C,–,inactive: -3.68%
Cc1ccc2occ(/C=C/C(=O)c3ccccc3O)c(=O)c2c1,–,inactive: -2.49%
COc1cc(NC(=O)C2CCN(S(=O)(=O)c3cccs3)CC2)cc(OC)c1,"inconclusive: 25.9 µM [inhibitor, single point]",–
O=S1(=O)CC(O)C(NCc2cccnc2)C1 (centres undefined),–,inactive: 5.73%
CCCCn1cnc2c(cnn2-c2ccc(Cl)cc2)c1=O,"inconclusive: 18.4 µM [activator, partial curve]",–
O=C(CSCc1ccccn1)Nc1ccccc1,"inconclusive: 11.6 µM [activator, partial curve]",–
FC(F)(F)c1nc(-c2ccccc2)ncc1-c1nnnn1-c1ccccc1,active: 20.6 µM,–
Cc1ccc(-c2nnc(SCC(=O)N/N=C/c3ccc(C)s3)n2-c2ccccc2)cc1,active: 23.1 µM,–
O=C(CSc1nnc(C2CC2)n1-c1ccccc1)N1CCCC1,"inconclusive: 7.3 µM [inhibitor, partial curve, poor fit]",–
Cc1ccc(NC(=O)COC(=O)/C=C/c2ccco2)cc1S(=O)(=O)N(C)C,–,inactive: 0.678%
COc1ccccc1NC(=O)CCSc1nnc(-c2ccco2)o1,"inconclusive: 16.4 µM [activator, partial curve, poor fit]",–
Cc1cccc(-c2nn(-c3ccccc3)cc2C(=O)N(C)CC(=O)Nc2ccc(N3CCOCC3)cc2)c1,active: 11.6 µM,–
O=C1CC(=O)Nc2cc(S(=O)(=O)Nc3ccc(Cl)c(C(F)(F)F)c3)ccc2N1,"inconclusive: 20.6 µM [activator, partial curve, poor fit]",–
CCC1(c2ccccc2)NC(=O)N(Cc2ccc(C(=O)OC)cc2)C1=O (centres undefined),"inconclusive: 32.6 µM [inhibitor, single point]",–
COc1cccc(C(=O)NCCSc2ccc(F)cc2)c1,"inconclusive: 23.1 µM [activator, partial curve]",–
Cn1cccc1/C=N/NC(=O)c1sc2cc(Cl)ccc2c1Cl,–,inactive: 15.9%
CC1(C)OC(c2ccccc2)=C/C(=C\C=N\NC(=O)c2ccncc2)O1,"inconclusive: 16.4 µM [inhibitor, single point]",–
CC[C@@H]1C(c2cccc(Cl)c2)=NN(c2ccc(Br)cc2)[C@H]1C(=O)N1CCOC1=O,–,inactive: 3.49%
Cc1ccc(-n2nnnc2SC(C)C(=O)Nc2ccccc2-c2ccccc2)cc1 (centres undefined),"inconclusive: 20.6 µM [inhibitor, single point]",–
